Assay results from PubChem BioAssay AID2685 (National Center for Advancing Translational Sciences (NCATS), 2010).
Hit rate of the full screen: of about 320,000 compounds, about 2,100 (0.66%) were called active. This list was built around the results that the source calls inconclusive (neither active nor inactive); the mix of calls is not that of the screen. The call rests on the fitted dose curve; in most records, active means well fitted inhibition curve with a large enough effect in the signal ratio, with a control signal flat (not every such curve was filed as active); inconclusive means small, poorly fitted or top-dose-only effect, or effect the other way, or a change in a side signal; inactive means flat fitted curve, though single readings scatter; the % refers to the signal ratio. A potency beside an inconclusive call is a rough fit, not a confirmed value.

experiment: qHTS Assay for Lipid Storage Modulators in Drosophila S3 Cells; conditions: BODIPY lipid droplet fluorescence, 18-24 h, cells fed with added oleic acid; lipid storage change, negative = inhibition: at 46.1 µM (top of the series) unless noted
Procedure, shortened: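 Drosophila S3 cells got compounds at several concentrations plus oleic acid (400 uM solution). Laser-scanning cytometry with 488 nm excitation read lipid droplets at 500-530 nm and cells at 575-640 nm. Percent activity was relative to 20 uM Triacsin C.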
On the % scale 0 is the no-effect control and ±100 the full control effect; potency means the concentration at half of the fitted maximal effect.

SMILES	lipid storage change, negative = inhibition	Potency
C=CCN1C(=O)C2C(C(=O)NC3CCCC3)C3(C)C=CC2(O3)C1C(=O)NC1CCCC1 (stereo unspecified)	inconclusive: -2.28%	–
CCOC(=O)C1=C(CN2CCN(C(=O)c3ccco3)CC2)NC(=O)NC1c1ccc(OC(C)C)cc1 (stereo unspecified)	–	active: 18.4 µM
O=C(c1ccccc1)C1Oc2ccccc2C2CC(c3cccs3)=NN12 (stereo unspecified)	inconclusive: 8.29%	–
CCCCCCCCNC(=O)c1cnccn1	inconclusive: 0.675%	–
CCn1c(Cc2ccccc2)nnc1SCC(=O)Nc1ccc2c(c1)OCO2	–	inconclusive: 7.31 µM [rising, partial curve]
N#Cc1ccc(C(=O)NCC(c2ccco2)N2CCCC2)cc1 (stereo unspecified)	–	inconclusive: 0.82 µM [falling, single point]
CC12CCC(C(=O)Nc3cccc(Cl)c3Cl)([C@H](Br)C1=O)C2(C)C (stereo partly specified)	inconclusive: 8.23%	–
O=C1C2C3CCCC3=C3CCCC3C2C(=O)N1c1ccc(F)cc1 (stereo unspecified)	inconclusive: 9.46%	–
CC(C)c1ccc(C(=O)NCCCNC(=O)c2cnccn2)cc1	inconclusive: 25.6%	–
COC(=O)c1c(NC(=O)CSc2nccn2C)sc(C)c1C	inconclusive: -11.2%	–
Cn1c(N)c(C(c2ccccc2)c2c(N)n(C)c(=O)n(C)c2=O)c(=O)n(C)c1=O	inconclusive: -5.79%	–
Cc1ccc(-c2nn(-c3ccc(F)cc3)cc2C(=O)N(C)CC(=O)Nc2ccc(N3CCOCC3)cc2)cc1	inconclusive	–
Cc1sc(C(=O)NCc2cccnc2)c2nc(C)n(CC(=O)NCc3cccnc3)c(=O)c12	–	inconclusive: 29.1 µM [activator, single point]
COc1cc(C(=O)NCCNc2nc3ccc(C)cc3cc2C#N)cc(OC)c1OC	inconclusive: -22.3%	–
CC(=O)c1cccc(NC(=O)CN2C(=O)c3cccnc3Oc3ccc(Cl)cc32)c1	inconclusive: -55.9%	–
O=C(COc1ccccc1)Nc1cc(S(=O)(=O)N2CCOCC2)ccc1N1CCCC1	inconclusive: 17.8%	–
Cc1cc2cc(CCNC(=O)c3ccc(S(=O)(=O)N4CCCC4)cc3)c(=O)[nH]c2cc1C	inconclusive: -40.9%	–
O=C1OC(c2ccccc2)Cc2cc(C(=O)N3CCN(c4ccc(F)cc4)CC3)ccc21 (stereo unspecified)	inconclusive: -44.2%	–
Cn1cc(Br)c(C(=O)Nc2c(F)c(F)c(F)c(F)c2F)n1	–	inconclusive: 18.4 µM [falling, partial curve]
O=C(CN1CCN(c2ccc(F)cc2)CC1)NC(=O)NCc1ccco1	inconclusive: -0.435%	–
CCn1c2ccccc2c2cnc(N=CN(C)C)c(C#N)c21	–	inconclusive: 29.1 µM [activator, single point]

Pulled by compound from the entries so far, two records:
SMILES	lipid storage change, negative = inhibition	Potency
CCn1c(Cc2ccccc2)nnc1SCC(=O)Nc1ccc2c(c1)OCO2	–	inconclusive: 7.31 µM [rising, partial curve]
C=CCN1C(=O)C2C(C(=O)NC3CCCC3)C3(C)C=CC2(O3)C1C(=O)NC1CCCC1 (stereo unspecified)	inconclusive: -2.28%	–
